In patent publication US12091402B2 (Avilar Therapeutics, Inc., priority 2021, dated 2024):

Test: general procedure: Fmoc solid-phase peptide synthesis; AM Resin (0.30 mmol/g); CTC Resin; HBTU/DIEA
Conditions: conjugation step

Row | Substance | conjugation yield | final purity (method not given)
1 | 3-((2S,5aR,11S,14R,17S,20S,23S,26S,32S,35S,38S,41S,44R,47S,49aS)-35-((1H-imidazol-5-yl)methyl)-17,38-bis((1H-indol-3-yl)methyl)-47-(carboxymethyl)-2-(1-((2R,3R,4R,5S)-3,4-dihydroxy-5-((4-(trifluoromethyl)pyrimidin-2-yl)amino)tetrahydro-2H-pyran-2-yl)-2,5,8,11-tetraoxatridecan-13-amido)-11-((R)-1-hydroxyethyl)-23,32-diisobutyl-20-isopropyl-41-methyl-5,10,13,16,19,22,25,28,31,34,37,40,43,46,49-pentadecaoxooctatetracontahydro-5H-14,44-(methanodithiomethano)dipyrrolo[1,2-a:1′,2′-d][1,4,7,10,13,16,19,22,25,28,31,34,37,40,43]pentadecaazacyclopentatetracontin-26-yl)propanoic acid | 59.7% | 93.1% purity

Same assay, conditions: oxidative folding step

Row | Substance | final purity (method not given)
2 | 3-((2S,5aR,11S,14R,17S,20S,23S,26S,32S,35S,38S,41S,44R,47S,49aS)-35-((1H-imidazol-5-yl)methyl)-17,38-bis((1H-indol-3-yl)methyl)-2-amino-47-(carboxymethyl)-11-((R)-1-hydroxyethyl)-23,32-diisobutyl-20-isopropyl-41-methyl-5,10,13,16,19,22,25,28,31,34,37,40,43,46,49-pentadecaoxooctatetracontahydro-5H-14,44-(methanodithiomethano)dipyrrolo[1,2-a:1′,2′-d][1,4,7,10,13,16,19,22,25,28,31,34,37,40,43]pentadecaazacyclopentatetracontin-26-yl)propanoic acid | 85% purity

Same assay, conditions: whole synthesis

Row | Substance | final purity (method not given) | isolated yield
3 | 3-((2S,5aR,11S,14R,17R,20S,23S,26S,32S,35S,38S,41S,44R,47S,49aS)-35-((1H-imidazol-5-yl)methyl)-17,38-bis((1H-indol-3-yl)methyl)-2-amino-47-(carboxymethyl)-11-((R)-1-hydroxyethyl)-23,32-diisobutyl-20-isopropyl-41-methyl-5,10,13,16,19,22,25,28,31,34,37,40,43,46,49-pentadecaoxooctatetracontahydro-5H-14,44-(methanodithiomethano)dipyrrolo[1,2-a:1′,2′-d][1,4,7,10,13,16,19,22,25,28,31,34,37,40,43]pentadecaazacyclopentatetracontin-26-yl)propanoic acid | 95.6% purity | 20.9% yield
4 | 3-((2S,5aR,11S,14R,17S,20S,23S,26S,32S,35S,38S,41S,44R,47S,49aS)-35-((1H-imidazol-5-yl)methyl)-17,38-bis((1H-indol-3-yl)methyl)-2-amino-11-((R)-1-hydroxyethyl)-23,32-diisobutyl-20-isopropyl-41,47-dimethyl-5,10,13,16,19,22,25,28,31,34,37,40,43,46,49-pentadecaoxooctatetracontahydro-5H-14,44-(methanodithiomethano)dipyrrolo[1,2-a:1′,2′d][1,4,7,10,13,16,19,22,25,28,31,34,37,40,43]pentadecaazacyclopentatetracontin-26-yl)-N,N-dimethylpropanamide (PACAWHLGQLVWCTP; D-residues; cyclised or stapled) | 94.4% purity | 6.4% yield
5 | 3-((2S,5aR,11S,14R,17S,20S,23S,26S,32S,35S,38S,41S,44R,47S,49aS)-35-((1H-imidazol-5-yl)methyl)-17,38-bis((1H-indol-3-yl)methyl)-2-amino-11-((R)-1-hydroxyethyl)-41-(hydroxymethyl)-23,32-diisobutyl-20-isopropyl-47-methyl-5,10,13,16,19,22,25,28,31,34,37,40,43,46,49-pentadecaoxooctatetracontahydro-5H-14,44-(methanodithiomethano)dipyrrolo[1,2-a:1′,2′-d][1,4,7,10,13,16,19,22,25,28,31,34,37,40,43]pentadecaazacyclopentatetracontin-26-yl)propanoic acid (PACSWHLGELVWCTP; D-residues; cyclised or stapled) | 96.1% purity | 16.4% yield
6 | 3-((2S,5aR,11S,14R,17S,20S,23S,26S,32S,35S,38S,41S,44R,47S,49aS)-35-((1H-imidazol-5-yl)methyl)-17,38-bis((1H-indol-3-yl)methyl)-2-amino-47-(2-amino-2-oxoethyl)-11-((R)-1-hydroxyethyl)-23,32-diisobutyl-20-isopropyl-41-methyl-5,10,13,16,19,22,25,28,31,34,37,40,43,46,49-pentadecaoxooctatetracontahydro-5H-14,44-(methanodithiomethano)dipyrrolo[1,2-a:1′,2′-d][1,4,7,10,13,16,19,22,25,28,31,34,37,40,43]pentadecaazacyclopentatetracontin-26-yl)-N,N-dimethylpropanamide | 96.9% purity | 22.0% yield
7 | 3-((2S,5aR,11S,14R,17S,20S,23S,26S,32S,35S,38S,41S,44R,47S,49aS)-35-((1H-imidazol-5-yl)methyl)-17,38-bis((1H-indol-3-yl)methyl)-2-amino-47-(2-amino-2-oxoethyl)-11-((R)-1-hydroxyethyl)-23,32-diisobutyl-20-isopropyl-41-methyl-5,10,13,16,19,22,25,28,31,34,37,40,43,46,49-pentadecaoxooctatetracontahydro-5H-14,44-(methanodithiomethano)dipyrrolo[1,2-a:1′,2′-d][1,4,7,10,13,16,19,22,25,28,31,34,37,40,43]pentadecaazacyclopentatetracontin-26-yl)propanoic acid | 97.5% purity | 26.0% yield
8 | 3-((2S,5aR,11S,14R,17S,20S,23S,26S,32S,35S,38S,41S,44R,47S,49aS)-35-((1H-imidazol-5-yl)methyl)-17,38-bis((1H-indol-3-yl)methyl)-2-amino-47-(carboxymethyl)-11,41-bis((R)-1-hydroxyethyl)-23,32-diisobutyl-20-isopropyl-5,10,13,16,19,22,25,28,31,34,37,40,43,46,49-pentadecaoxooctatetracontahydro-5H-14,44-(methanodithiomethano)dipyrrolo[1,2-a:1′,2′-d][1,4,7,10,13,16,19,22,25,28,31,34,37,40,43]pentadecaazacyclopentatetracontin-26-yl)propanoic acid (PDCTWHLGELVWCTP; D-residues; cyclised or stapled) | 96.9% purity | 30.5% yield
9 | 3-((2S,5aR,11S,14R,17S,20S,23S,26S,32S,35S,38S,41S,44R,47S,49aS)-35-((1H-imidazol-5-yl)methyl)-17,38-bis((1H-indol-3-yl)methyl)-2-amino-47-(carboxymethyl)-11-((R)-1-hydroxyethyl)-41-(2-hydroxyethyl)-23,32-diisobutyl-20-isopropyl-5,10,13,16,19,22,25,28,31,34,37,40,43,46,49-pentadecaoxooctatetracontahydro-5H-14,44-(methanodithiomethano)dipyrrolo[1,2-a:1′,2′-d][1,4,7,10,13,16,19,22,25,28,31,34,37,40,43]pentadecaazacyclopentatetracontin-26-yl)propanoic acid | 98.0% purity | 18.3% yield
10 | 3-((2S,5aR,11S,14R,17S,20S,23S,26S,32S,35S,38S,41S,44R,47S,49aS)-35-((1H-imidazol-5-yl)methyl)-17,38-bis((1H-indol-3-yl)methyl)-2-amino-47-(carboxymethyl)-11-((R)-1-hydroxyethyl)-41-(hydroxymethyl)-23,32-diisobutyl-20-isopropyl-5,10,13,16,19,22,25,28,31,34,37,40,43,46,49-pentadecaoxooctatetracontahydro-5H-14,44-(methanodithiomethano)dipyrrolo[1,2-a:1′,2′-d][1,4,7,10,13,16,19,22,25,28,31,34,37,40,43]pentadecaazacyclopentatetracontin-26-yl)propanoic acid (PDCSWHLGELVWCTP; D-residues; cyclised or stapled) | 95.4% purity | 27.6% yield
11 | 3-((2S,5aR,11S,14R,17S,20S,23S,26S,32S,35S,38S,41S,44R,47S,49aS)-35-((1H-imidazol-5-yl)methyl)-17,38-bis((1H-indol-3-yl)methyl)-47-(carboxymethyl)-2-(3-(2-(2-(hex-5-ynamido)ethoxy)ethoxy)propanamido)-11-((R)-1-hydroxyethyl)-23,32-diisobutyl-20-isopropyl-41-methyl-5,10,13,16,19,22,25,28,31,34,37,40,43,46,49-pentadecaoxooctatetracontahydro-5H-14,44-(methanodithiomethano)dipyrrolo[1,2-a:1′,2′-d][1,4,7,10,13,16,19,22,25,28,31,34,37,40,43]pentadecaazacyclopentatetracontin-26-yl)propanoic acid | 97.0% purity | 2.37%
12 | 3-((2S,5aR,11S,14R,17S,20S,23S,26S,32S,35S,38S,41S,44R,47S,49aS)-35-((1H-imidazol-5-yl)methyl)-17,38-bis((1H-indol-3-yl)methyl)-47-(carboxymethyl)-2-(3-(2-(hex-5-ynamido)ethoxy)propanamido)-11-((R)-1-hydroxyethyl)-23,32-diisobutyl-20-isopropyl-41-methyl-5,10,13,16,19,22,25,28,31,34,37,40,43,46,49-pentadecaoxooctatetracontahydro-5H-14,44-(methanodithiomethano)dipyrrolo[1,2-a:1′,2′-d][1,4,7,10,13,16,19,22,25,28,31,34,37,40,43]pentadecaazacyclopentatetracontin-26-yl)propanoic acid | 95.1% purity | 2.20%

Same assay, conditions: whole synthesis, scale 20 mmol*4, TFA salt

Row | Substance | isolated mass
13 | 3-((2S,5aR,11S,14R,17S,20S,23S,26S,32S,35S,38S,41S,44R,47S,49aS)-35-((1H-imidazol-5-yl)methyl)-17,38-bis((1H-indol-3-yl)methyl)-2-amino-47-(carboxymethyl)-11-((R)-1-hydroxyethyl)-23,32-diisobutyl-20-isopropyl-41-methyl-5,10,13,16,19,22,25,28,31,34,37,40,43,46,49-pentadecaoxooctatetracontahydro-5H-14,44-(methanodithiomethano)dipyrrolo[1,2-a:1′,2′-d][1,4,7,10,13,16,19,22,25,28,31,34,37,40,43]pentadecaazacyclopentatetracontin-26-yl)propanoic acid | 25.00 g

Same assay, conditions: whole synthesis, scale 20 mmol, TFA salt

Row | Substance | final purity (method not given) | isolated mass | isolated yield
14 | 3-((2S,5aR,11S,14R,17S,20S,23S,26S,32S,35S,38S,41S,44R,47S,49aS)-35-((1H-imidazol-5-yl)methyl)-17,38-bis((1H-indol-3-yl)methyl)-2-amino-47-(carboxymethyl)-11-((R)-1-hydroxyethyl)-23,32-diisobutyl-20-isopropyl-41-methyl-5,10,13,16,19,22,25,28,31,34,37,40,43,46,49-pentadecaoxooctatetracontahydro-5H-14,44-(methanodithiomethano)dipyrrolo[1,2-a:1′,2′-d][1,4,7,10,13,16,19,22,25,28,31,34,37,40,43]pentadecaazacyclopentatetracontin-26-yl)propanoic acid | 88.3% purity | 6.25 g | 18.1% yield
